These are yes or no findings as the source states them, for the method shown. Some binding calls cover weakened binding; strength is not graded here.

One molecule from doi:10.1101/2020.06.17.158394 (bioRxiv, 2020) can be followed below.

The assay concerns the target T1, KaiC-CI domain from T. elongatus (T. elongatus) (UniProt Q79V60).
T1 sequence: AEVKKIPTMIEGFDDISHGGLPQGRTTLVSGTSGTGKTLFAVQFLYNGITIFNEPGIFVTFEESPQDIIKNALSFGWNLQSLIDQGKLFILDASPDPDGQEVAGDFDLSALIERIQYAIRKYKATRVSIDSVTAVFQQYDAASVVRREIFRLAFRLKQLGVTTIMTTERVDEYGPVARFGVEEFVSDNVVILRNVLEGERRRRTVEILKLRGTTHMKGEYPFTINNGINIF
The experiment in a line: crystal structure.

B1: SasAtrx domain (crystallised with KaiC-CI from T. elongatus) (domain or fragment, UniProt Q8DMT2 17-107)
chain: LSLLLFVANRPGDEEETAAIQAHIQQLPSNFSFELKVVPIGEQPYLLEEYKLVATPALIKVRPEPRQTLAGRKLLQKVDYWWPRWQREVAL
Turning to B1, the binding result is “binds”.
